Taken from: PubChem BioAssay AID1159584 (Peter MacCallum Cancer Centre, 2016)

Test: 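Knock-downs that harm CDH1-null cells more than parental MCF10A cells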 (primary screen)
Cell system: human MCF10A breast epithelial cells, parental and CDH1-null
Reagent: siRNA against human genes
Detection: 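Cell viability by CellTiter-Glo ATP luminescence, each line scaled to the mean of mock wells across plates, then CDH1-null over parental ratio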
Scale: CDH1-null / parental viability ratio: higher = CDH1-null cells survive relatively better than parental
In all, the deposit lists about 18,000 reagents; shown is an unselected part. Not all columns of the deposit are shown. Not given: the amount of reagent, the time to read-out.

Knock-down of MGAT4B came out at: CDH1-null / parental viability ratio 0.73.
Silencing of CACNA1G (calcium voltage-gated channel subunit alpha1 G) gave: CDH1-null / parental viability ratio 1.36.
SERPINB5 (serpin family B member 5) gave CDH1-null / parental viability ratio 0.72.
C14orf93 (chromosome 14 open reading frame 93) showed CDH1-null / parental viability ratio 1.04.
Depletion of LIAT1 (ligand of ATE1) gave: CDH1-null / parental viability ratio 1.47.
Against IDI1 (isopentenyl-diphosphate delta isomerase 1), the entry reads CDH1-null / parental viability ratio 1.11.
OLFM3 (olfactomedin 3) scored CDH1-null / parental viability ratio 1.02.
Against HECTD4 (HECT domain E3 ubiquitin protein ligase 4), the entry reads CDH1-null / parental viability ratio 1.12.
Silencing of CAMK2N1 (calcium/calmodulin dependent protein kinase II inhibitor 1) resulted in: CDH1-null / parental viability ratio 0.82.
Against IL31RA (interleukin 31 receptor A) the deposit lists CDH1-null / parental viability ratio 1.09.
After knock-down of ATP13A5 (ATPase 13A5) the results were CDH1-null / parental viability ratio 1.1.
PDAP1 (PDGFA associated protein 1) scored CDH1-null / parental viability ratio 0.99.
After knock-down of KRT38 (keratin 38), the record shows CDH1-null / parental viability ratio 1.33.
Knock-down of AHSA1 (activator of HSP90 ATPase activity 1) gave: CDH1-null / parental viability ratio 1.02.

Reprinted from above for reference:
IDI1 (isopentenyl-diphosphate delta isomerase 1) | CDH1-null / parental viability ratio: 1.11
OLFM3 (olfactomedin 3) | CDH1-null / parental viability ratio: 1.02
HECTD4 (HECT domain E3 ubiquitin protein ligase 4) | CDH1-null / parental viability ratio: 1.12
CAMK2N1 (calcium/calmodulin dependent protein kinase II inhibitor 1) | CDH1-null / parental viability ratio: 0.82
IL31RA (interleukin 31 receptor A) | CDH1-null / parental viability ratio: 1.09
ATP13A5 (ATPase 13A5) | CDH1-null / parental viability ratio: 1.1

The listing continues.
Against CDKN2D (cyclin dependent kinase inhibitor 2D) the deposit lists CDH1-null / parental viability ratio 0.96.
For VPS25 (vacuolar protein sorting 25 homolog) the deposit lists CDH1-null / parental viability ratio 0.81.
FKBP2 (FKBP prolyl isomerase 2) gave CDH1-null / parental viability ratio 1.08.
With knock-down of ZNF322P1 (zinc finger protein 322 pseudogene 1), the record shows CDH1-null / parental viability ratio 2.69.
For IDS (iduronate 2-sulfatase), the entry reads CDH1-null / parental viability ratio 1.06.
Silencing of SULT2A1 (sulfotransferase family 2A member 1) gave: CDH1-null / parental viability ratio 0.91.
Silencing of OR6C75 (olfactory receptor family 6 subfamily C member 75) gave: CDH1-null / parental viability ratio 1.34.
DAND5 (DAN domain BMP antagonist family member 5) scored CDH1-null / parental viability ratio 0.94.
ARL6 (ARF like GTPase 6) scored CDH1-null / parental viability ratio 1.13.
MYO5C (myosin VC) showed CDH1-null / parental viability ratio 1.17.
Knock-down of PBOV1 (prostate and breast cancer overexpressed 1) gave: CDH1-null / parental viability ratio 0.88.
ZNF93 (zinc finger protein 93) gave CDH1-null / parental viability ratio 0.87.
PTPRS (protein tyrosine phosphatase receptor type S) showed CDH1-null / parental viability ratio 1.19.
After knock-down of RANBP17 (RAN binding protein 17), the screen gave CDH1-null / parental viability ratio 1.18.
After knock-down of LARP6 (La ribonucleoprotein 6, translational regulator) the results were CDH1-null / parental viability ratio 1.23.
ZBTB45 (zinc finger and BTB domain containing 45) showed CDH1-null / parental viability ratio 0.93.
ECT2L (epithelial cell transforming 2 like) showed CDH1-null / parental viability ratio 0.95.
For COA1 (cytochrome c oxidase assembly factor 1), the entry reads CDH1-null / parental viability ratio 0.72.
Against TNC (tenascin C), the entry reads CDH1-null / parental viability ratio 0.96.
With knock-down of MS4A7 (membrane spanning 4-domains A7) the results were CDH1-null / parental viability ratio 0.76.
SYT1 (synaptotagmin 1) showed CDH1-null / parental viability ratio 0.79.
